The values below come from publication PMC7322566.

This assay has as its target T1, LIMP2 (human (endogenous in SH-SY5Y)) (UniProt Q14108).
T1 sequence: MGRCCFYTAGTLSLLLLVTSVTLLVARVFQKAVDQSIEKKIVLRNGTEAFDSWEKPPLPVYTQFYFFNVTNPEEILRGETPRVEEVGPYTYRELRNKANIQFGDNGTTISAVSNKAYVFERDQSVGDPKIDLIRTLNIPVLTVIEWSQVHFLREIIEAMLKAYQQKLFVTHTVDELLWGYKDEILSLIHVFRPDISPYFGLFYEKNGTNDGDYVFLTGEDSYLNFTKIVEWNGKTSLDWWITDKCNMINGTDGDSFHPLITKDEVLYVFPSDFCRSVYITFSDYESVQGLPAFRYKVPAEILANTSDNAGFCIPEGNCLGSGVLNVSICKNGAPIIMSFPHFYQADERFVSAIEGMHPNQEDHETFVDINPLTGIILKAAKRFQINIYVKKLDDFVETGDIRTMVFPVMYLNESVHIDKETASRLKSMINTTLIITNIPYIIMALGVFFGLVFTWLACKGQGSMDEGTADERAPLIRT
Description: co-IP; LIMP2 immunoprecipitated with LIMP2 antibody from fresh lysates of SH-SY5Y cells, untreated or treated with 1 μM thapsigargin (Thg) for 1 h; input (2% of lysate) and immunoprecipitates blotted for GCase and LIMP2; GCase expressed as a ratio to LIMP2.

These are yes or no findings as the source states them, for the method shown. In cells and extracts the contact can be indirect. Some entries that bind do so weakly or less than the wild type. Sequences can lack the tags named with a protein.

B1: glucocerebrosidase (GCase) (enzyme, UniProt P04062 40-536)
chain: ARPCIPKSFGYSSVVCVCNATYCDSFDPPTFPALGTFSRYESTRSGRRMELSMGPIQANHTGTGLLLTLQPEQKFQKVKGFGGAMTDAAALNILALSPPAQNLLLKSYFSEEGIGYNIIRVPMASCDFSIRTYTYADTPDDFQLHNFSLPEEDTKLKIPLIHRALQLAQRPVSLLASPWTSPTWLKTNGAVNGKGSLKGQPGDIYHQTWARYFVKFLDAYAEHKLQFWAVTAENEPSAGLLSGYPFQCLGFTPEHQRDFIARDLGPTLANSTHHNVRLLMLDDQRLLLPHWAKVVLTDPEAAKYVHGIAVHWYLDFLAPAKATLGETHRLFPNTMLFASEACVGSKFWEQSVRLGSWDRGMQYSHSIITNLLYHVVGWTDWNLALNPEGGPNWVRNFVDSPIIVDITKDTFYKQPMFYHLGHFSKFIPEGSQRVGLVASQKNDLDAVALMHPDGSAVVVVLNRSSKDVPLTIKDPAVGFLETISPGYSIHTYLWRRQ
B1: the binding entry was “binds”.
